{"sequences": {"note": "Sequences of proteins named here, by UniProt entry; tags and fusion partners are left off. A change or cut given only in a name is not applied to a line headed by its entry.", "UniProt Q9P126": "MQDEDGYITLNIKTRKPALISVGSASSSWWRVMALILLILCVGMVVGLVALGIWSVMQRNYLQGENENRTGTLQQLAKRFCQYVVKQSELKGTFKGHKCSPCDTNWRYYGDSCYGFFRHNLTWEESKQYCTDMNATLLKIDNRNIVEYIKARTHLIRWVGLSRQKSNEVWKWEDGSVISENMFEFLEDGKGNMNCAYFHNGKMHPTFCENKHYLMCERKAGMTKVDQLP", "UniProt Q9I841": "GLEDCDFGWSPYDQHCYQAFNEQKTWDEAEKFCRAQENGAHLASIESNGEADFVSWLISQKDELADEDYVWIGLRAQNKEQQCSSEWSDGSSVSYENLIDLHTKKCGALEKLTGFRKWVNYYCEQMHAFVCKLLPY"}, "source": "patent US20170320924A1", "about": "(UNIVERSITY OF YAMANASHI, published 2017)", "target": "human CLEC-2 (C-type lectin-like receptor 2) (human) (UniProt Q9P126)", "assay": "column 'CLEC-2 binding' of the summary Table 10", "note": "Results are given in words; binding and its absence hold for the method and conditions named. Some results given as binding are weak or reduced against the parent protein; the word gives no strength."}
{"substance": "wild-type rhodocytin derived from recombinant cell No. 1 ([βS]-[α subunit]/pCMV and [βS]-[β subunit]/pCMV in CHO cells) (from UniProt Q9I841 1-136; Q9I840 24-146) (ligand)", "values": [{"measurement": "binding", "result": "binds"}]}
